Source: PMC8249925
These are yes or no findings as the source states them, for the method shown. In cells and extracts the contact can be indirect. Some entries that bind do so weakly or less than the wild type.

Protein sequences, listed by entry. Tags and fused reporters are not part of them. Residues count along the entry.
UniProt O00206, residues 24-839: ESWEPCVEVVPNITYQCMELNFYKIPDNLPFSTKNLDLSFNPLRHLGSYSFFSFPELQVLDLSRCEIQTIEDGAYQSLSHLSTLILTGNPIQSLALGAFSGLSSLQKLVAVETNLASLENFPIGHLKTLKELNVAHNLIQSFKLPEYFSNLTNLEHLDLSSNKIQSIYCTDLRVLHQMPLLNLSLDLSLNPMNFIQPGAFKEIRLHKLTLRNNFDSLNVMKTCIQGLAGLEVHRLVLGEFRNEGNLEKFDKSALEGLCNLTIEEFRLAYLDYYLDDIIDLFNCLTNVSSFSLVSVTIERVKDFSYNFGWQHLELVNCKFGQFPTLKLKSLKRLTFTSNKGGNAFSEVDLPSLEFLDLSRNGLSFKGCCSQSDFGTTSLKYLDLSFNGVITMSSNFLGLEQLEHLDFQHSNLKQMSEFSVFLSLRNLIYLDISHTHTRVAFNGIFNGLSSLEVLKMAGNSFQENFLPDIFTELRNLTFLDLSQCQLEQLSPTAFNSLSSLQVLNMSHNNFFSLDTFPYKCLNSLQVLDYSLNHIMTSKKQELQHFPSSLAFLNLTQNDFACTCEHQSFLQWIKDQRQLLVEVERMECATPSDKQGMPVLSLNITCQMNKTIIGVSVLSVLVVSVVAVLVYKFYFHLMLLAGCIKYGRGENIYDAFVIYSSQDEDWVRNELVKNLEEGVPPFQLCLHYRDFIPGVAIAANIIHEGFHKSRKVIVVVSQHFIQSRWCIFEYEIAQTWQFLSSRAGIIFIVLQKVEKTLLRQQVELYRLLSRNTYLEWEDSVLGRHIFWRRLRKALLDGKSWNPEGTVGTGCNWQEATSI

Target: toll-like receptor 4 (TLR4) on HEK-Blue hTLR4 cells (human) (UniProt O00206)
Test: proximity ligation; positive controls in fixed HEK-Blue hTLR4 cells; Duolink PLA with anti-TLR4 and anti-MD2 antibodies, or anti-Ku70 and anti-Ku80 antibodies

binding: binds
B1: myeloid differentiation 2 (MD-2) (protein, UniProt Q9Y6Y9 19-160)
chain: QKQYWVCNSSDASISYTYCDKMQYPISINVNPCIELKRSKGLLHIFYIPRRDLKQLYFNLYITVNTMNLPKRKEVICRGSDDDYSFCRALKGETVNTTISFSFKGIKFSKGKYKCVVEAISGSPEEMLFCLEFVILHQPNSN
